This assay has as its system L1210 leukemia ip in BDF1 mice, survival T/C. As to the kind of experiment: NCI In Vivo Anticancer Drug Screen. Data for tumor model L1210 Leukemia (intraperitoneal) in B6D2F1 (BDF1) mice. The settings on record: T/C endpoint: mean survival time, higher T/C = longer survival.
Where [1] appears, read: dose: 400.0 mg/kg/injection, schedule: Q04DX002 (ip), vehicle: Klucel (hydroxypropylcellulose) (HPC).
Where [2] appears, read: dose: 200.0 mg/kg/injection, schedule: Q01DX001 (ip), vehicle: saline.
Setting [3] is: dose: 400.0 mg/kg/injection, schedule: Q01DX009 (ip), vehicle: saline.
Where [4] appears, read: dose: 100.0 mg/kg/injection, schedule: Q01DX001 (ip), vehicle: saline.
[5] abbreviates: dose: 400.0 mg/kg/injection, schedule: Q01DX001 (ip), vehicle: saline.
Where [6] appears, read: dose: 200.0 mg/kg/injection, schedule: Q04DX003 (ip), vehicle: saline.
[7] abbreviates: dose: 400.0 mg/kg/injection, schedule: Q04DX003 (ip), vehicle: saline.

This is an account of results in PubChem BioAssay AID248 (DTP/NCI, 2004).

Molecules are shown by their SMILES. The list shows only some results of the screen, not a fair sample: it gathers tests that were run many times, whatever their T/C, doses with no T/C, and many T/C values between a quarter and a half above the control. Further doses and runs are listed elsewhere. T/C: endpoint of the treated group in % of that of the vehicle group. Some entries give survivors of the animals treated and no T/C: the source files T/C as zero there, which appears to mark a toxic dose or a test without result, not a measured value. Some doses without a T/C left all or most animals alive at the check, yet need not have been tolerated: survival well below the control is almost never listed, so the zero probably covers shortened survival too. Counts of survivors are from the toxicity check (mostly the fifth day) where no day follows; animals may have died later. Schedule codes are those of the source, read here as Q, the interval in days (D) or hours (H), X, the number of doses. Some schedules carry Z or #; the key to these is not given. Some structures stand for samples that the source files as different forms (salt, stereo form or complex); doses refer to the form tested. Marks such as (2×) count equal records among those shown. Some doses were run more than once; the values are given in rising order. Where survival is the endpoint, this PubChem deposit counts one and a half times the control or more as active, and values a quarter to a half above the control carry no call in these data; other NCI protocols may use other cut-offs.

With `COC(=O)N1C=C2C(C)=CC1C(C#N)(C#N)C2(C#N)C#N` (stereo unspecified), the survivor count runs as follows: (dose: 20.0 mg/kg/injection, schedule: Q01DX001 (ip), vehicle: saline) 1 of 6 and 2 of 6; (dose: 40.0 mg/kg/injection, schedule: Q01DX001 (ip), vehicle: saline) 0 of 6; (dose: 75.0 mg/kg/injection, schedule: Q01DX001 (ip), vehicle: saline) 0 of 6; (dose: 150.0 mg/kg/injection, schedule: Q01DX001 (ip), vehicle: saline) 0 of 6; (dose: 300.0 mg/kg/injection, schedule: Q01DX001 (ip), vehicle: saline) 0 of 6.

Consider `O=c1[nH]cnc2c1ncn2CCCCCCl`, for which the survivor count (dose: 200.0 mg/kg/injection, schedule: Q04DX003 (ip), vehicle: Klucel (hydroxypropylcellulose) (HPC)) is recorded as 0 of 6 and the survivor count (dose: 400.0 mg/kg/injection, schedule: Q04DX003 (ip), vehicle: Klucel (hydroxypropylcellulose) (HPC)) is 0 of 6.

`CCS(=O)(=O)C(Br)CBr` (stereo unspecified): the survivor count (dose: 100.0 mg/kg/injection, schedule: Q01DX009 (ip), vehicle: Klucel (hydroxypropylcellulose) (HPC)) was 4 of 6; the survivor count (dose: 200.0 mg/kg/injection, schedule: Q01DX009 (ip), vehicle: Klucel (hydroxypropylcellulose) (HPC)) was 1 of 6; the survivor count (dose: 400.0 mg/kg/injection, schedule: Q01DX009 (ip), vehicle: Klucel (hydroxypropylcellulose) (HPC)) is reported as 1 of 6; the survivor count under setting [1] is given as 1 of 3.

As to `OC(CN1CCCCC1)c1nc2ccccc2c2ccccc12` (stereo unspecified), under setting [2], the survivor count is listed as 1 of 3.

In the case of `CC(=O)Nc1cc(Cl)cc2c1-c1c(Cl)cc(Cl)cc1C2=O`, the survivor count runs as follows: (dose: 200.0 mg/kg/injection, schedule: Q01DX009 (ip), vehicle: saline) 3 of 6; under setting [3], 0 of 6.

Regarding `O=C(O)CCNCCO`, the survivor count under setting [3] is 5 of 6.

In the case of `OCC1OC(n2cnc3cncnc32)C(O)C1O` (stereo unspecified), the survivor count was 3 of 6 (dose: 40.0 mg/kg/injection, schedule: Q01DX015 (ip), vehicle: saline); 0 of 6 (dose: 80.0 mg/kg/injection, schedule: Q01DX015 (ip), vehicle: saline); 0 of 6 (dose: 160.0 mg/kg/injection, schedule: Q01DX015 (ip), vehicle: saline); 0 of 4 under setting [2]; 0 of 6 (dose: 320.0 mg/kg/injection, schedule: Q01DX015 (ip), vehicle: saline); 0 of 4 under setting [5]. Also, the T/C under setting [4] is 127 % of control.

Turning to `O=C(COc1ccc(Cl)c(Cl)c1)NCc1ccc[n+](Cc2ccc(Cl)c(S(=O)(=O)F)c2)c1`, the survivor count under setting [6] is reported as 1 of 6 and the survivor count under setting [7] is on record as 2 of 6.

For `COC(=O)[CH]([Hg][O]C(C)=O)C(OC)c1ccccc1` (stereo unspecified), the survivor count runs as follows: (dose: 12.0 mg/kg/injection, schedule: Q04DX002 (ip), vehicle: carboxymethylcellulose (CMC)) 3 of 3; (dose: 12.5 mg/kg/injection, schedule: Q04DX002 (ip), vehicle: carboxymethylcellulose (CMC)) 1 of 3; (dose: 25.0 mg/kg/injection, schedule: Q04DX002 (ip), vehicle: carboxymethylcellulose (CMC)) 2 of 3; (dose: 50.0 mg/kg/injection, schedule: Q04DX002 (ip), vehicle: carboxymethylcellulose (CMC)) 0 of 3; (dose: 100.0 mg/kg/injection, schedule: Q04DX002 (ip), vehicle: Klucel (hydroxypropylcellulose) (HPC)) 0 of 3; (dose: 200.0 mg/kg/injection, schedule: Q04DX002 (ip), vehicle: Klucel (hydroxypropylcellulose) (HPC)) 0 of 3. The survivor count under setting [1] is reported as 0 of 3.

Regarding `CCCCC/C=N\NC(N)=S`, the survivor count by setting is: (dose: 200.0 mg/kg/injection, schedule: Q01DX001 (ip), vehicle: carboxymethylcellulose (CMC)) 2 of 4; (dose: 400.0 mg/kg/injection, schedule: Q01DX001 (ip), vehicle: carboxymethylcellulose (CMC)) 1 of 4.

Consider `CCCCCCCCOC(=O)c1[nH]cnc1N`, for which the survivor count under setting [5] is listed as 0 of 4.

`NCCC(=O)OC1CCCc2c(O)c3c(c(O)c21)C(=O)c1ccccc1C3=O` (stereo unspecified): the survivor count is listed as 5 of 6 (dose: 100.0 mg/kg/injection, schedule: Q01DX009 (ip), vehicle: saline); 5 of 6 under setting [6]; 5 of 6 under setting [7].

Regarding `Nc1ccc(N)cc1`, the survivor count runs as follows: (dose: 25.0 mg/kg/injection, schedule: Q01DX009 (ip), vehicle: DMSO) 5 of 6; (dose: 50.0 mg/kg/injection, schedule: Q01DX009 (ip), vehicle: DMSO) 5 of 6 (2×); (dose: 80.0 mg/kg/injection, schedule: Q01DX001 (ip), vehicle: saline) 2 of 6; under setting [4], 0 of 6; (dose: 100.0 mg/kg/injection, schedule: Q01DX009 (ip), vehicle: DMSO) 0 of 6; under setting [2], 0 of 6. The survivor count is, setting by setting: (dose: 200.0 mg/kg/injection, schedule: Q01DX009 (ip), vehicle: DMSO) 0 of 6; under setting [5], 0 of 6; (dose: 400.0 mg/kg/injection, schedule: Q04DX003 (ip), vehicle: DMSO) 3 of 6.

On to `C[n+]1cccc2cccc(N)c21`, for which the survivor count by setting is: (dose: 100.0 mg/kg/injection, schedule: Q01DX001 (ip), vehicle: other) 1 of 4; (dose: 200.0 mg/kg/injection, schedule: Q01DX001 (ip), vehicle: other) 1 of 4; (dose: 400.0 mg/kg/injection, schedule: Q01DX001 (ip), vehicle: other) 0 of 4.

In the case of `CN(C)c1ccc(I)cc1`, the survivor count is, setting by setting: (dose: 100.0 mg/kg/injection, schedule: Q01DX001 (ip), vehicle: saline with Tween-80) 0 of 3 and 1 of 3; (dose: 200.0 mg/kg/injection, schedule: Q01DX001 (ip), vehicle: saline with Tween-80) 0 of 3; (dose: 400.0 mg/kg/injection, schedule: Q01DX001 (ip), vehicle: saline with Tween-80) 0 of 3.

For `COc1ccc2ccc[n+](C)c2c1`, the survivor count is on record as 1 of 6 (dose: 100.0 mg/kg/injection, schedule: Q04DX003 (ip), vehicle: saline with Tween-80); 0 of 6 (dose: 200.0 mg/kg/injection, schedule: Q04DX003 (ip), vehicle: saline with Tween-80); 0 of 6 (dose: 400.0 mg/kg/injection, schedule: Q04DX003 (ip), vehicle: saline with Tween-80).

Turning to `c1ccc(SSc2ccccc2)cc1`, under “dose: 100.0 mg/kg/injection, schedule: Q01DX009 (ip), vehicle: saline with Tween-80”, the survivor count is given as 6 of 6.

`O=C(Nc1ccc(NC(=O)c2ccc(C3=NCCN3)cc2)cc1)Nc1ccc(C2=NCCN2)cc1`: the T/C (dose: 12.5 mg/kg/injection, schedule: Q01DX Z (ip), vehicle: carboxymethylcellulose (CMC)) is 127 % of control. Besides, the survivor count (dose: 225.0 mg/kg/injection, schedule: Q01DX Z (ip), vehicle: carboxymethylcellulose (CMC)) is reported as 6 of 6 and the survivor count (dose: 500.0 mg/kg/injection, schedule: Q01DX Z (ip), vehicle: carboxymethylcellulose (CMC)) is given as 1 of 6.

`CCCCCCCCN(CC)CC`: the survivor count under setting [5] is recorded as 2 of 4.

`COC1OC(CN(CCO)CCO)C2OC(C)(C)OC12` (stereo unspecified): the survivor count is given as 0 of 6 (dose: 150.0 mg/kg/injection, schedule: Q01DX009 (ip), vehicle: saline); 1 of 6 under setting [6]; 1 of 6 (dose: 225.0 mg/kg/injection, schedule: Q01DX009 (ip), vehicle: saline); 1 of 6 under setting [7].

As for `C/C(CCCC(C)(C)C(=O)O)=N/Nc1ccc([N+](=O)[O-])cc1[N+](=O)[O-]`, the survivor count by setting is: (dose: 150.0 mg/kg/injection, schedule: Q01DX001 (ip), vehicle: other) 0 of 6; (dose: 300.0 mg/kg/injection, schedule: Q01DX001 (ip), vehicle: other) 1 of 6.
